# Measurements from patent publication US20230346924A1, “MRNA VACCINE COMPRISING ADJUVANT CAPABLE OF KINETIC CONTROL” (PROGENEER INC., priority 2020, published 2023).
# For at least one compound, name, drawing or mass did not settle the structure.
# System: plasmacytoid dendritic cells (pDCs)
# Experiment: Degree of antigen presentation in pDCs
# Format: cell-based, mouse
smiles,measurement,setting,value
CCOCc1nc2c(N)nc3ccccc3c2n1CC(C)(C)O [Compound R848],degree of antigen presentation,agonist four hours after mRNA (4h),significantly increased
same,degree of antigen presentation,treated with mRNA at the same time (0h),slightly increased
